Results taken from patent US6992169B2 (Cyclacel Limited, priority 1998, dated 2006).

Assay: general procedure: Fmoc solid-phase peptide synthesis; Fmoc-Lys(Boc)-[(4-(hydroxymethyl)phenoxyacetyl)-resin] (ABI 401425; 0.5 mmol/g) or Rink Amide AM resin (Novabiochem); FastMoc MonPrevPk programs; PyBOP/HOBt/DIEA for manual acylations
[1] = conjugation step, analytical RP-HPLC, Vydac 218TP54
[2] = whole synthesis, λ=214 nm, scale of the general procedure 0.1 mmol or 0.25 mmol

Substance	conjugation yield (conjugation step) [%]	final HPLC purity [1]	also measured
2′-[Succinimidopropionoyl-(H-Cys-Arg-Gln-Ile-Lys-Ile-Trp-Phe-Gln-Asn-Arg-Arg-Met-Lys-Trp-Lys-Lys-NH2)]paclitaxel	53	purity>97%	–
2′-[Succinimidopropionoyl-(H-Cys-Arg-Gln-Ile-Lys-Ile-Trp-Phe-Gln-Asn-Arg-Arg-Met-Lys-Trp-Lys-Lys-OH)]paclitaxel	62	purity>97%	–
4-[(Succinimidopropionoyl-Gly)-(H-Cys-bAla-Arg-Arg-Met-Lys-Trp-Lys-Lys-NH2)]podophyllotoxin (SEQ ID No. 19)	33	purity>97%	–
4-[Acetyl-(H-Cys-βAla-Arg-Arg-Met-Lys-Trp-Lys-Lys-NH2)]podophyllotoxin (SEQ ID No. 19)	100	purity>98%	–
4-[Succinimidopropionoyl-(H-Cys-Arg-Gln-Ile-Lys-Ile-Trp-Phe-Gln-Asn-Arg-Arg-Met-Lys-Trp-Lys-Lys-OH)]podophyllotoxin	35	purity>97%	–
4-[Succinimidopropionoyl-(H-Cys-D-Arg-D-Gln-D-Ile-D-Lys-D-Ile-D-Trp-D-Phe-D-Gln-D-Asn-D-Arg-D-Arg-D-Nle-D-Lys-D-Trp-D-Lys-D-Lys-NH2)]podophyllotoxin	52	purity>98%	–
4-[Succinimidopropionoyl-(H-Cys-b-Ala-D-Arg-D-Arg-D-Met-D-Lys-D-Trp-D-Lys-D-Lys-NH2)]podophyllotoxin	21	purity>98%	–
4-[Succinimidopropionoyl-(biotinamidocaproyl-βAla-Arg-Gln-Ile-Lys-Ile-Trp-Phe-Gln-Asn-Arg-Arg-Met-Lys-Trp-Lys-Lys-Gly-Cys-Gly-NH2)]podophyllotoxin	–	purity>97%	–
4′-(Succinimidopropionoyl)epipodophyllotoxin-(H-Cys-Arg-Arg-Met-Lys-Trp-Lys-Lys-Cys-NH2)-2′-(succinimidopropionyl)paclitaxel (SEQ ID No. 21)	–	purity>98%	–
4′-(Succinimidopropionoyl)epipodophyllotoxin-(H-Cys-Arg-Arg-Met-Lys-Trp-Lys-Lys-Cys-NH2)-10-O-(succinimidopropionoyl)camptothecin (SEQ ID No. 21)	–	purity>96%	–
4′-Chloroacetyl-4-[succinimidopropionoyl-(H-Cys-Arg-Gln-Ile-Lys-Ile-Trp-Phe-Gln-Asn-Arg-Arg-Met-Lys-Trp-Lys-Lys-OH)]epipodophyllotoxin	67	purity>99%	–
4′-Demethyl-4-[4″-aminoanilino-(succinimidopropionoyl)-(H-Cys-βAla-Arg-Arg-Met-Lys-Trp-Lys-Lys-NH2)]epipodophyllotoxin (SEQ ID No. 19)	97	purity>98%	–
4′-Demethyl-4-[acetyl-(H-Cys-Arg-Gln-Ile-Lys-Ile-Trp-Phe-Gln-Asn-Arg-Arg-Met-Lys-Trp-Lys-Lys-NH2)]epipodophyllotoxin (SEQ ID No. 27)	56	purity>96%	–
4′-Demethyl-4-[acetyl-(H-Cys-βAla-Arg-Arg-Met-Lys-Trp-Lys-Lys-NH2)]epipodophyllotoxin (SEQ ID No. 19)	46	purity>98%	–
4′-Demethyl-4-[succinimidopropionoyl-(H-Cys-Arg-Gln-Ile-Lys-Ile-Trp-Phe-Gln-Asn-Arg-Arg-Met-Lys-Trp-Lys-Lys-OH)]epipodophyllotoxin	–	–	step yield (late stage modification step): 73%; final HPLC purity (late stage modification step, analytical RP-HPLC, Vydac 218TP54): purity>99%
4′-Methoxy-4-[4″-aminoanilino-(succinimidopropionoyl)-(H-Cys-Arg-Gln-Ile-Lys-Ile-Trp-Phe-Gln-Asn-Arg-Arg-Met-Lys-Trp-Lys-Lys-NH2)]epipodophyllotoxin (SEQ ID No. 27)	32	purity>99%	–
4′-Methoxy-4-[4″-aminoanilino-(succinimidopropionoyl)-(H-Cys-βAla-Arg-Arg-Met-Lys-Trp-Lys-Lys-NH2)]epipodophyllotoxin (SEQ ID No. 19)	49	purity>98%	–
4′-[Succinimidopropionoyl-(H-Cys-Arg-Gln-Ile-Lys-Ile-Trp-Phe-Gln-Asn-Arg-Arg-Met-Lys-Trp-Lys-Lys-NH2)]epipodophyllotoxin	81	purity>98%	–
4′-[Succinimidopropionoyl-(H-Cys-Arg-Gln-Ile-Lys-Ile-Trp-Phe-Gln-Asn-Arg-Arg-Met-Lys-Trp-Lys-Lys-OH)]epipodophyllotoxin	48	purity>98%	–
4′-[Succinimidopropionoyl-(H-Cys-Arg-Gln-Ile-Lys-Ile-Trp-Phe-Gln-Asn-Arg-Arg-Met-Lys-Trp-Lys-Lys-OH)]etoposide	77	purity>99%	–
4′-[Succinimidopropionoyl-(H-Cys-βAla-Arg-Arg-Met-Lys-Trp-Lys-Lys-NH2)]epipodophyllotoxin	63	purity>98%	–
7-[Succinimidopropionoyl-(H-Cys-Arg-Gln-Ile-Lys-Ile-Trp-Phe-Gln-Asn-Arg-Arg-Met-Lys-Trp-Lys-Lys-OH)]paclitaxel	–	purity>97%	–

Substance	conjugation yield (conjugation step) [%]	final HPLC purity [1]	also measured
10-O-[Succinimidopropionoyl-(H-Cys-Arg-Gln-Ile-Lys-Ile-Trp-Phe-Gln-Asn-Arg-Arg-Met-Lys-Trp-Lys-Lys-NH2)]camptothecin (SEQ ID No. 27)	57	purity>98%	–
Biotinamidocaproyl-βAla-Arg-Gln-Ile-Lys-Ile-Trp-Phe-Gln-Asn-Arg-Arg-Met-Lys-Trp-Lys-Lys-Gly-Cys-Gly-NH2	–	–	final HPLC purity [2]: purity>99%
Bis-[4-(succinimidopropionoyl)podophyllotoxin]-(H-Cys-Arg-Arg-Met-Lys-Trp-Lys-Lys-Cys-NH2)	32	purity>98%	–
Example 1 [H-Glu-Gly-bAla]4 peptide	–	–	crude HPLC purity (whole synthesis, λ=200-300 nm, scale of the general procedure 0.1 mmol or 0.25 mmol): >89%
G2-[Succinimidopropionoyl-(H-Cys-Arg-Gln-Ile-Lys-Ile-Trp-Phe-Gln-Asn-Arg-Arg-Met-Lys-Trp-Lys-Lys-OH)]etoposide	80	purity>98%	–
G3-[Succinimidopropionoyl-(H-Cys-Arg-Gln-Ile-Lys-Ile-Trp-Phe-Gln-Asn-Arg-Arg-Met-Lys-Trp-Lys-Lys-OH)]etoposide	79	purity>98%	–
H-Arg-Gln-Ile-Lys-Ile-Trp-Phe-Gln-Asn-Arg-Arg-Met-Lys-Trp-Lys-Lys-OH (SEQ ID No. 1)	–	–	crude HPLC purity (whole synthesis, analytical RP-HPLC, Vydac 218TP54, scale 0.25 mmol): >90%
H-CRRMKWKKC-NH2 (cysteine pairing not given here)	–	–	final HPLC purity [2]: purity>99%
H-C[βAla]RRMKWKK-NH2	–	–	final HPLC purity [2]: purity>95%
H-C[βAla][dR][dR][dM][dK][dW][dK][dK]-NH2	–	–	final HPLC purity [2]: purity>99%
H-Cys-Arg-Gln-Ile-Lys-Ile-Trp-Phe-Gln-Asn-Arg-Arg-Met-Lys-Trp-Lys-Lys-NH2	–	–	final HPLC purity [2]: purity>99%
H-Cys-Arg-Gln-Ile-Lys-Ile-Trp-Phe-Gln-Asn-Arg-Arg-Met-Lys-Trp-Lys-Lys-OH	–	–	final HPLC purity [2]: purity>99%
H-Cys-D-Arg-D-Gln-D-Ile-D-Lys-D-Ile-D-Trp-D-Phe-D-Gln-D-Asn-D-Arg-D-Arg-D-Nle-D-Lys-D-Trp-D-Lys-D-Lys-NH2	–	–	final HPLC purity (whole synthesis, 214 nm, scale of the general procedure 0.1 mmol or 0.25 mmol): purity>99%
H-Cys-D-Lys-D-Lys-D-Trp-D-Lys-D-Met-D-Arg-D-Arg-D-Asn-D-Gln-D-Phe-D-Trp-D-Ile-D-Lys-D-Ile-D-Gln-D-Arg-NH2	–	–	final HPLC purity [2]: purity>99%
N-{3-[3-(H-Cys-Arg-Gln-Ile-Lys-Ile-Trp-Phe-Gln-Asn-Arg-Arg-Met-Lys-Trp-Lys-Lys-OH)succinimido]benzoyl}doxorubicin	–	–	final HPLC purity (whole synthesis, l=214 nm, scale of the general procedure 0.1 mmol or 0.25 mmol): purity>99%; crude mass (whole synthesis, scale 0.075 mmol): 238 mg
N-{3-[3-(H-Cys-D-Lys-D-Lys-D-Trp-D-Lys-D-Met-D-Arg-D-Arg-D-Asn-D-Gln-D-Phe-D-Trp-D-Ile-D-Lys-D-Ile-D-Gln-D-Arg-NH2)succinimido]benzoyl}doxorubicin	–	purity>95%	–
O-(βAla-succinyl-βAla-Arg-Gln-Ile-Lys-Ile-Trp-Phe-Gln-Asn-Arg-Arg-Met-Lys-Trp-Lys-Lys-OH)bohemine (SEQ ID No. 20)	–	–	final HPLC purity (whole synthesis, analytical RP-HPLC, Vydac 218TP54, scale of the general procedure 0.1 mmol or 0.25 mmol): purity>93%
O-[Succinimidopropionoyl-(H-Cys-Arg-Gln-Ile-Lys-Ile-Trp-Phe-Gln-Asn-Arg-Arg-Met-Lys-Trp-Lys-Lys-OH)]bohemine (SEQ ID No. 27)	40	purity>95%	–
O-[Succinimidopropionoyl-(H-Cys-Arg-Gln-Ile-Lys-Ile-Trp-Phe-Gln-Asn-Arg-Arg-Met-Lys-Trp-Lys-Lys-OH)]roscovitine (SEQ ID No. 27)	–	purity>98%	–
O-{3-[3-(Cys-Arg-Gln-Ile-Lys-Ile-Trp-Phe-Gln-Asn-Arg-Arg-Met-Lys-Trp-Lys-Lys-OH)succinimido]propionoyl}-bohemine	40	–	final HPLC purity (conjugation step, λ=200-300 nm): purity>95%
PEPTIDE1{C.R.Q.[Ile_bopen].K.[Ile_bopen].W.F.Q.N.R.R.M.K.W.K.K.[am]}|CHEM1{[SuccProp-4-Podo]}$PEPTIDE1,CHEM1,1:R3-1:R1$$$V2.0	69	purity>98%	–

Strings that start with PEPTIDE1 are HELM notation: dots part the residues, brackets hold end groups and non-standard residues. [ ]: non-standard residue; d: D form. βAla = NCCC(=O)O
